Assay results published in the supplement of paper PMC12282887.
Values are raw readings; no control value is given beside them.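 For antimicrobials the highest concentration approximated the MIC. Most other compounds topped out at 500 µM, and known inducer-like compounds reached up to 1 mM. Inocula for deletion strains were tenfold smaller, and any well growing below 10% of the overall median was considered non-growing.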

Tested on: Escherichia coli BW25113
Assay: growth (OD600 area under curve, 8 h) (OD600 x h); higher = more growth
Method: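 E. coli BW25113 reporter strains (wild type, ΔmarA, ΔsoxS, Δrob, each carrying one of 8 lux reporter plasmids) were grown in 40 µl LB in 384-well plates at 37°C, 800 rpm, with each compound at 4 two-fold concentrations, in biological duplicates. Growth is the baseline-corrected OD600 area under the curve over 8 h (0-8 h WT, 1-9 h deletion strains).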

O=C(O)c1ccccc1O [Salicylate]
growth
Details | reporter plasmid: EVC | reporter plasmid: acrABp | reporter plasmid: marRABp | reporter plasmid: micFp | reporter plasmid: ompFp | reporter plasmid: robp | reporter plasmid: soxSp | reporter plasmid: tolCp
17.3 µg/ml, genetic background: wild type | 3.25 | 3.05 | 3.386 | 2.99 | 3.34 | 3.447 | 3.05 | 3.08
17.3 µg/ml, genetic background: ΔmarA | 3.24 | 3.99 | 3.64 | 3.36 | 3.75 | 3.97 | 2.88 | 2.85
17.3 µg/ml, genetic background: Δrob | 3.2 | 3.27 | 3.42 | 2.96 | 2.96 | 2.9 | 2.85 | 2.95
17.3 µg/ml, genetic background: ΔsoxS | 3.44 | 3.4 | 3.42 | 3.05 | 3.27 | 3.66 | 3.49 | 3.42
34.5 µg/ml, genetic background: wild type | 3.17 | 3.1 | 3.395 | 3.08 | 3.2 | 3.52 | 3.05 | 3.12
34.5 µg/ml, genetic background: ΔmarA | 3 | 4.31 | 3.73 | 3.31 | 3.89 | 4.04 | 2.74 | 2.9
34.5 µg/ml, genetic background: Δrob | 3.11 | 2.8 | 3.33 | 3.03 | 2.8 | 2.87 | 2.69 | 3.08
34.5 µg/ml, genetic background: ΔsoxS | 3.42 | 3.34 | 3.12 | 3.09 | 3.146 | 3.3 | 3.28 | 3.46
69.1 µg/ml, genetic background: wild type | 3.23 | 3.08 | 3.35 | 3.11 | 3.34 | 3.583 | 2.98 | 3.26
69.1 µg/ml, genetic background: ΔmarA | 3.14 | 4.1 | 3.74 | 3.38 | 3.94 | 4.12 | 3.11 | 3
69.1 µg/ml, genetic background: Δrob | 3.14 | 3.225 | 3.54 | 3.03 | 2.9 | 3.07 | 2.64 | 3.29
69.1 µg/ml, genetic background: ΔsoxS | 3.35 | 3.63 | 3.52 | 2.977 | 3.38 | 3.65 | 3.12 | 3.32
138.1 µg/ml, genetic background: wild type | 2.933 | 2.4 | 2.48 | 2.61 | 2.79 | 3.06 | 2.61 | 2.91
138.1 µg/ml, genetic background: ΔmarA | 2.89 | 3.37 | 2.4 | 2.8 | 3.14 | 3.72 | 2.25 | 2.63
138.1 µg/ml, genetic background: Δrob | 2.81 | 2.73 | 2.57 | 2.55 | 2.07 | 2.06 | 2.52 | 3.145
138.1 µg/ml, genetic background: ΔsoxS | 3.22 | 2.52 | 2.34 | 2.3408 | 2.27 | 2.52 | 2.75 | 3.28
